The supplement of paper PMC10849652
The other results are listed elsewhere or left out.

Sequences of proteins named here, by UniProt entry; tags and fusion partners are left off. A change or cut given only in a name is not applied to a line headed by its entry.
UniProt Q15293: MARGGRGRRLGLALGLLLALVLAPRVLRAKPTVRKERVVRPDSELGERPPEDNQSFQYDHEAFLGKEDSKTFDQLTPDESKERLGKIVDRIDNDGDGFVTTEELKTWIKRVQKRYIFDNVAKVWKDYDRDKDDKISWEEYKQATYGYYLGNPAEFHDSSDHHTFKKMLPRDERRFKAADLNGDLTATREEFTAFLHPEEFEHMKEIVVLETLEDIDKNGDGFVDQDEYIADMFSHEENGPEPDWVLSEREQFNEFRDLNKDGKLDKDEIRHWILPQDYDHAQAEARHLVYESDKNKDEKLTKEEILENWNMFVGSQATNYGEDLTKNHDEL
UniProt Q9Y2P8: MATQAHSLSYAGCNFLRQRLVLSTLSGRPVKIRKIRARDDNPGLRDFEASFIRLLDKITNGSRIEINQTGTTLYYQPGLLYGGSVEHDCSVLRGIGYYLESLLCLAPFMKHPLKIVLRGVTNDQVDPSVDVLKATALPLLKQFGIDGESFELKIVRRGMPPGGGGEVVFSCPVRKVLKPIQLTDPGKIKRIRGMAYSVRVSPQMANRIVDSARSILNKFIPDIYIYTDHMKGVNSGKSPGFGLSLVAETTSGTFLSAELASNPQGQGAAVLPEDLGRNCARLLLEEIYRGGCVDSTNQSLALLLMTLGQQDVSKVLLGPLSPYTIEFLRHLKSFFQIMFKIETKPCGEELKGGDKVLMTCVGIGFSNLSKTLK
UniProt P52756, whole entry, looked up: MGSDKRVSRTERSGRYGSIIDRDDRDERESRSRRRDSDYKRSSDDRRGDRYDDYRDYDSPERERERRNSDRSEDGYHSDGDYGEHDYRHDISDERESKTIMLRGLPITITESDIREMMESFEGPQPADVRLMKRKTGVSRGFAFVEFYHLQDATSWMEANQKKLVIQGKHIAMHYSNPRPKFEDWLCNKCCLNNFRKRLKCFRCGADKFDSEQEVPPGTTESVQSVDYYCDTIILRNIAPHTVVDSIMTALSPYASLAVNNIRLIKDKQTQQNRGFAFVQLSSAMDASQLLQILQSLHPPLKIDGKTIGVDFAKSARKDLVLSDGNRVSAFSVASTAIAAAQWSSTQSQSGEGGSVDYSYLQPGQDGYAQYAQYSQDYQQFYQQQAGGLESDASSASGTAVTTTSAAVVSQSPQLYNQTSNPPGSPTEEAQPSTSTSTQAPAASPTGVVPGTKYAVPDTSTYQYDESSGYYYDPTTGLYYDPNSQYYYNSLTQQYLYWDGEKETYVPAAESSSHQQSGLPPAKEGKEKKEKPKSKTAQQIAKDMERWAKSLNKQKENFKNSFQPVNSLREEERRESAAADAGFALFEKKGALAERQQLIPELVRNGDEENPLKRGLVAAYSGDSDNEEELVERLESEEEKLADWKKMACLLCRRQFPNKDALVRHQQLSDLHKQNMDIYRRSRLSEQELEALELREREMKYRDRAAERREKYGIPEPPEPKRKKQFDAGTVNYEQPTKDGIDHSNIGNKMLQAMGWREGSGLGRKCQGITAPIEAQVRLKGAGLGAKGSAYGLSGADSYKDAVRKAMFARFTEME
UniProt A6NED2: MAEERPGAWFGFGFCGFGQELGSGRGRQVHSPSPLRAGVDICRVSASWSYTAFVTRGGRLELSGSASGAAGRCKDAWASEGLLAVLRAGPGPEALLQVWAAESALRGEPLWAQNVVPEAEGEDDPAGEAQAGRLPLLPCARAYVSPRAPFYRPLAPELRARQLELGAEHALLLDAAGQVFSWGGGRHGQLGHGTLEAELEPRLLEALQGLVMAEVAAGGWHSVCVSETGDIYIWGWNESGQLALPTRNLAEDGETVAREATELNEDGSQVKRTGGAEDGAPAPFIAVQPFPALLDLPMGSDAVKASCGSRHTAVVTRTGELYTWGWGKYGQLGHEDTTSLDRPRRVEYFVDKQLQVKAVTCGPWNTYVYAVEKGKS
UniProt Q15291, whole entry, looked up: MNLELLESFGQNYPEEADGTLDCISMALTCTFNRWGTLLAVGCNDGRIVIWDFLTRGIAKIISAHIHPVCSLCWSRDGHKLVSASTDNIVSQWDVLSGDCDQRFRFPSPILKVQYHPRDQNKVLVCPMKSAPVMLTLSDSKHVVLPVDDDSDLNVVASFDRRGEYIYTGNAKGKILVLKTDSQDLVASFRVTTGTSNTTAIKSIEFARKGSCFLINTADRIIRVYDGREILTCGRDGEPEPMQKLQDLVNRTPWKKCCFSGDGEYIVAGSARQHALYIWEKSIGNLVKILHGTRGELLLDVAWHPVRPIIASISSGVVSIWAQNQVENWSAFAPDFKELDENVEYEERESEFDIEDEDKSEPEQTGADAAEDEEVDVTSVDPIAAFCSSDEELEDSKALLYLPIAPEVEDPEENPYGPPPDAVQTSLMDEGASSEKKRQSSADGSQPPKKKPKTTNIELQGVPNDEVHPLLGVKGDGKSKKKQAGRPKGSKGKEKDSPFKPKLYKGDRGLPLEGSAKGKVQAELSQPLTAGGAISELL
UniProt Q13127: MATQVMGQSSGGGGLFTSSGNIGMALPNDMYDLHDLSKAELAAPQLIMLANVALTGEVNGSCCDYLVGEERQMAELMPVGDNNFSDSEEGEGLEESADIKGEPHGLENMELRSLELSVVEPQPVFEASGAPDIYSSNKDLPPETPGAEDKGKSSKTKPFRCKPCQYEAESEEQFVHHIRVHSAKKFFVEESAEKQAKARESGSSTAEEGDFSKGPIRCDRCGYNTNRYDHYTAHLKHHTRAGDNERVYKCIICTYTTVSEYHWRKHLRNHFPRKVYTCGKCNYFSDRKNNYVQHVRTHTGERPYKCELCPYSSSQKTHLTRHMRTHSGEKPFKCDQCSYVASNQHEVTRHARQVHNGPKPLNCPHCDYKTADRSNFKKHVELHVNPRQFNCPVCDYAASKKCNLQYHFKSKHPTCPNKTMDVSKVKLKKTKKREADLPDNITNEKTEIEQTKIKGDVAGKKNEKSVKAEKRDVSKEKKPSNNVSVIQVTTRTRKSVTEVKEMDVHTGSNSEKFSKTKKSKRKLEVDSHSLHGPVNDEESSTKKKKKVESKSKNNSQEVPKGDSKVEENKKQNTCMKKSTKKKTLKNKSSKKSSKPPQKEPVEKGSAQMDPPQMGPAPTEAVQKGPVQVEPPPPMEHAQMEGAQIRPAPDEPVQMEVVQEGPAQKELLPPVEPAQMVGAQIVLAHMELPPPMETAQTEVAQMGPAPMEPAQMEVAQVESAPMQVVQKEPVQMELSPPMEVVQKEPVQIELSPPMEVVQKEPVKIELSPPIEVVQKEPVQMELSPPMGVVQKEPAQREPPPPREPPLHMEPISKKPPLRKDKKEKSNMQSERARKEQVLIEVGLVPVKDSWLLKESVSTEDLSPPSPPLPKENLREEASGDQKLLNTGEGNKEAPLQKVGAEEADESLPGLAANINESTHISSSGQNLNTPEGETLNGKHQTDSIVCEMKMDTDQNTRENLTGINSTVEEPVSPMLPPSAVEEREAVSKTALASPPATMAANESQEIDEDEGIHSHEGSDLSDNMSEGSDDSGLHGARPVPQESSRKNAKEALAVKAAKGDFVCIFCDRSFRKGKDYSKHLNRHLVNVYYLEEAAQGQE
UniProt O94762: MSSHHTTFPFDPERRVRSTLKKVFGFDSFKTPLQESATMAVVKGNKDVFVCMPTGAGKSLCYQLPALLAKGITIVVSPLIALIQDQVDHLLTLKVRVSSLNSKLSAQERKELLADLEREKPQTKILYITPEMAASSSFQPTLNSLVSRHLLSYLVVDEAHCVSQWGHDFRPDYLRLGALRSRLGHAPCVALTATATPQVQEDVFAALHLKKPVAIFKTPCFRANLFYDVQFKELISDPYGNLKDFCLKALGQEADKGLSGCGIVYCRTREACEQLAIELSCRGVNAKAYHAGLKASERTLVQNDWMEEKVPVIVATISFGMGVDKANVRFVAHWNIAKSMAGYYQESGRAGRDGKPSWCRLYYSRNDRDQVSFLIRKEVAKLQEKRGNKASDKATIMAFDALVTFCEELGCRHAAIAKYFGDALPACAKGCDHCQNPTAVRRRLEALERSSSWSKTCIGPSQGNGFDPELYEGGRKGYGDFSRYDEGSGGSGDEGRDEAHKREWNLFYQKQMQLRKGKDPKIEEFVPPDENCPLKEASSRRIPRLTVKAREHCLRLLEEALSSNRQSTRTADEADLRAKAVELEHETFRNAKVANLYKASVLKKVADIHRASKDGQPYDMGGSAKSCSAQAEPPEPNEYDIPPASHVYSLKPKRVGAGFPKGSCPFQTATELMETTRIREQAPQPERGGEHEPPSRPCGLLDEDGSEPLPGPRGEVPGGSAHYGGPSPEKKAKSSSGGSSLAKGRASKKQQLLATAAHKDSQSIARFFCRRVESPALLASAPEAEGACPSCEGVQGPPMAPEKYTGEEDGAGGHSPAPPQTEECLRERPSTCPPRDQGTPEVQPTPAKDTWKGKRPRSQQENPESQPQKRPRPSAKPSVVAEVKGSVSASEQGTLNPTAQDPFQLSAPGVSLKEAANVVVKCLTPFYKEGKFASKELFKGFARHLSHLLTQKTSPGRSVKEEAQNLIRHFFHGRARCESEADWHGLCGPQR
UniProt Q9NW13: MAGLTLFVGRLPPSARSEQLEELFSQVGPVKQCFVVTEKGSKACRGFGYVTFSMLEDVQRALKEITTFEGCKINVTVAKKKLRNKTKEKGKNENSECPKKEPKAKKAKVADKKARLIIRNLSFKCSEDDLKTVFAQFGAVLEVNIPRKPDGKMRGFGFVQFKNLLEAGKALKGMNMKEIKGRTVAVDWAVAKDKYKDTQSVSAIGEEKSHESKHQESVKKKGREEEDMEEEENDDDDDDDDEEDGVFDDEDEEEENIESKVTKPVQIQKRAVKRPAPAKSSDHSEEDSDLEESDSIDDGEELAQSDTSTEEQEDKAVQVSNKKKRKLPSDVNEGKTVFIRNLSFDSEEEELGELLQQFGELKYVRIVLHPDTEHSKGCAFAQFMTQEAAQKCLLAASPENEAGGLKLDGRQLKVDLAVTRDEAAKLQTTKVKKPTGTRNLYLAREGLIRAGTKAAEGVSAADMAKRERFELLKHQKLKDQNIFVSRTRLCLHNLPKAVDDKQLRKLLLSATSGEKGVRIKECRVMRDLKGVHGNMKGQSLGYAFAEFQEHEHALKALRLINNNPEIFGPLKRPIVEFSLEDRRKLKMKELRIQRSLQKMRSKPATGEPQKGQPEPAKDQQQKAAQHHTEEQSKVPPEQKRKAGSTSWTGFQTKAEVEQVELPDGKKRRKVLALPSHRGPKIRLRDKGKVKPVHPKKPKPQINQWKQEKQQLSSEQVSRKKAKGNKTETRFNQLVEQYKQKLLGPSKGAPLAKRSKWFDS
UniProt Q8IZV5: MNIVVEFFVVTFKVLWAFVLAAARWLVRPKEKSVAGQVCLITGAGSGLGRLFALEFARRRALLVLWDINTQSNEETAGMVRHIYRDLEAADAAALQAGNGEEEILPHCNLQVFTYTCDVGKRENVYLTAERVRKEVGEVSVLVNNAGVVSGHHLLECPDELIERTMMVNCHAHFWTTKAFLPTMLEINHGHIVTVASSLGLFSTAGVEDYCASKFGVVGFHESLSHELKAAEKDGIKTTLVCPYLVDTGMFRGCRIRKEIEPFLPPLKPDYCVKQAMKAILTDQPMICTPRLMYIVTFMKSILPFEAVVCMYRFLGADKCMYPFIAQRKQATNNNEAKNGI
UniProt Q96T37: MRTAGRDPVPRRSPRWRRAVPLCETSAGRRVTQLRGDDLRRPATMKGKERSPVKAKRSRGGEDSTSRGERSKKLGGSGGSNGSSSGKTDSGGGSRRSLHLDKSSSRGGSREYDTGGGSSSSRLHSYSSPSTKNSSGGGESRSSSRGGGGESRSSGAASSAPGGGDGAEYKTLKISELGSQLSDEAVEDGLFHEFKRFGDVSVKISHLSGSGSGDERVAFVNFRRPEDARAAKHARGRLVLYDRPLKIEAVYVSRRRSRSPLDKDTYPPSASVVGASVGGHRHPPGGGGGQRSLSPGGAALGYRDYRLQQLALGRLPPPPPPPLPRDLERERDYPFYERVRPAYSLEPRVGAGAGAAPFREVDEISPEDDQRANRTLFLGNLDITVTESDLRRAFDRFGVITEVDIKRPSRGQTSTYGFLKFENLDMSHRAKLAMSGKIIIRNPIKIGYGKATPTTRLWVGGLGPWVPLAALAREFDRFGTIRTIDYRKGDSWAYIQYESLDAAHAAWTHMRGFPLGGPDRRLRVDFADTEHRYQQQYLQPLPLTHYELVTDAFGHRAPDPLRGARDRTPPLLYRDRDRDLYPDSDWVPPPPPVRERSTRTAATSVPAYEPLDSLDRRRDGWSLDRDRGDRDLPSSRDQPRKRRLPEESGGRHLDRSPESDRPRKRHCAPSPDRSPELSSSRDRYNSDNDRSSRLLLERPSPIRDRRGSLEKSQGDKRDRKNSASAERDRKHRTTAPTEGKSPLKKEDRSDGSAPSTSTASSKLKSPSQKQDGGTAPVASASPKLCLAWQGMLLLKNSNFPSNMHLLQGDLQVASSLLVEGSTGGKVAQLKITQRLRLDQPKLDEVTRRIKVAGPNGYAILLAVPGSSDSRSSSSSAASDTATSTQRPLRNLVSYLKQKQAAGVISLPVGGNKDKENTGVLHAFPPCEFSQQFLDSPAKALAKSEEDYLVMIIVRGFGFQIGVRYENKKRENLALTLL

How the values were obtained:
Assay in all cases: log2 fold change, soluble protein after heating vs DMSO (PISA); higher = thermal stabilisation; K562 lysate, 10 uM; active = over 0.2 and 3.5 SD of the protein, either way, in both replicates (recomputed)
vemurafenib = compound: CCCS(=O)(=O)Nc1ccc(F)c(C(=O)c2c[nH]c3ncc(-c4ccc(Cl)cc4)cc23)c1F [vemurafenib]
In short: (§1)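 A 30 min treatment with 10 μM compound was applied to crude K562 extract at 1 mg/mL protein in PBS pH 7.4 with 1 mM MgCl2. Heating for 3 min spanned 48°C-58°C, after which aliquots were pooled, adjusted to 0.5% NP-40 at 4°C and spun at 21,000xg for 90 min. TMTpro 16plex LC-MS/MS of the supernatant, with channel sums equalised, gave values recorded as log-two fold change in thermal stability against solvent controls, from duplicates.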

[1] = compound: CCCS(=O)(=O)Nc1ccc(F)c(C(=O)c2c[nH]c3ncc(Cl)cc23)c1F
In short: as §1

barasertib = compound: CCN(CCCOc1ccc2c(Nc3cc(CC(=O)Nc4cccc(F)c4)[nH]n3)ncnc2c1)CCOP(=O)(O)O [barasertib]
In short: as §1

volasertib = compound: CC[C@@H]1C(=O)N(C)c2cnc(Nc3ccc(C(=O)N[C@H]4CC[C@H](N5CCN(CC6CC6)CC5)CC4)cc3OC)nc2N1C(C)C [volasertib]
In short: as §1

[2] = compound: CCn1c(C(=O)N(C2CC2)C2CC2)cc2c3c(ncn3C)c(Nc3cc(C)n(C)n3)nc21
In short: as §1

[3] = compound: CCn1cc(-c2ccnc3[nH]c(-c4cccc(CN(C)C)c4)cc23)c(-c2ccc(NC(=O)N(C)C)cc2)n1
In short: as §1

[4] = compound: CN1CCC(CNc2ccc3ncc(-c4cccc(OC(F)(F)F)c4)n3n2)CC1
In short: as §1

sotrastaurin = compound: CN1CCN(c2nc(C3=C(c4c[nH]c5ccccc45)C(=O)NC3=O)c3ccccc3n2)CC1 [sotrastaurin]
In short: as §1

[5] = compound: CC[C@@H]1C(=O)N(C)c2cnc(Nc3ccc(C(=O)NC4CCN(C)CC4)cc3OC)nc2N1C1CCCC1
In short: as §1

saracatinib = compound: CN1CCN(CCOc2cc(OC3CCOCC3)c3c(Nc4c(Cl)ccc5c4OCO5)ncnc3c2)CC1 [saracatinib]
In short: as §1

Measured: log2 fold change

REEP3 (UniProt Q6NUK4)
inactive: vemurafenib 0.048 | [1] -0.04 | barasertib 0.035 | volasertib -0.053 | [2] -0.035 | [3] -0.006 | [4] -0.051 | sotrastaurin 0.031

RCN1 (UniProt Q15293)
inactive: vemurafenib 0.028 | [1] 0 | barasertib -0.002 | [5] 0.021 | volasertib 0.021 | [2] -0.012 | [3] -0.013 | [4] -0.015 | saracatinib 0.044 | sotrastaurin 0.038

RDH11 (UniProt Q8TC12)
inactive: vemurafenib 0.055 | [1] 0.088 | [5] -0.115 | volasertib -0.13 | [2] 0.069 | [3] -0.213 | [4] 0.082 | saracatinib 0.021 | sotrastaurin 0.022

RBP5 (UniProt P82980)
inactive: vemurafenib -0.034 | [1] 0.054 | [5] 0.214 | volasertib 0.094 | [2] 0.108 | [3] -0.331 | [4] 0.153 | saracatinib -0.064 | sotrastaurin 0.156

REV1 (UniProt Q9UBZ9)
inactive: vemurafenib -0.156 | [1] 0.033 | barasertib -0.102 | [5] -0.156 | volasertib 0.004 | [2] 0.032 | [3] 0.049 | [4] -0.023 | saracatinib 0.003 | sotrastaurin 0.002

RCL1 (UniProt Q9Y2P8)
inactive: vemurafenib 0.057 | [1] 0.029 | barasertib 0.005 | [5] -0.046 | volasertib -0.038 | [2] 0.022 | [3] 0.002 | [4] 0.069 | saracatinib 0.003 | sotrastaurin -0.006

RBMX2 (UniProt Q9Y388)
inactive: vemurafenib -0.008 | [1] 0.102 | volasertib -0.085 | saracatinib 0.071

RBM5 (UniProt P52756)
inactive: vemurafenib -0.021 | [1] -0.018 | barasertib 0.087 | [5] 0.013 | volasertib -0.277 | [2] 0.064 | [3] 0.048 | [4] -0.012 | saracatinib -0.039 | sotrastaurin -0.03

RBM26 isoform 3 (UniProt Q5T8P6)
inactive: vemurafenib -0.043 | [1] 0.094 | barasertib 0 | [5] 0.123 | volasertib 0.047 | [2] -0.158 | saracatinib 0.097 | sotrastaurin 0.017

RFK (UniProt Q969G6)
inactive: vemurafenib 0 | [1] 0 | barasertib 0.122 | [5] -0.006 | volasertib -0.061 | [2] -0.017 | [3] -0.052 | [4] 0.008 | saracatinib 0.03 | sotrastaurin -0.007

Reprinted at random: 2 entries already listed, in no set order.
RCL1 (UniProt Q9Y2P8)
inactive: vemurafenib 0.057 | [1] 0.029 | barasertib 0.005 | [5] -0.046 | volasertib -0.038 | [2] 0.022 | [3] 0.002 | [4] 0.069 | saracatinib 0.003 | sotrastaurin -0.006

RBM26 isoform 3 (UniProt Q5T8P6)
inactive: vemurafenib -0.043 | [1] 0.094 | barasertib 0 | [5] 0.123 | volasertib 0.047 | [2] -0.158 | saracatinib 0.097 | sotrastaurin 0.017

(further entries)

RBM47
inactive: vemurafenib 0.054 | [1] 0.021 | volasertib -0.101 | [2] -0.199 | [3] -0.286 | [4] 0.11 | saracatinib 0.025

RCHY1 (UniProt Q96PM5)
inactive: vemurafenib -0.087 | [1] -0.037 | barasertib -0.008 | [5] -0.112 | volasertib 0.032 | [2] -0.073 | [3] 0.37 | [4] 0.001 | saracatinib -0.033 | sotrastaurin -0.201

RCCD1 (UniProt A6NED2)
inactive: vemurafenib -0.165 | [1] -0.003 | barasertib -0.059 | [5] 0.049 | volasertib 0.023 | [2] 0.039 | [3] -0.01 | [4] 0.053 | saracatinib 0.014 | sotrastaurin -0.047

RBBP7 (UniProt Q16576)
inactive: vemurafenib 0.044 | [1] -0.021 | barasertib -0.072 | [5] -0.017 | volasertib -0.004 | [2] -0.002 | saracatinib 0.021 | sotrastaurin 0.043

REV3L (UniProt O60673)
inactive: vemurafenib 0.051 | [1] 0.111 | barasertib 0.065 | [5] 0.111 | volasertib 0.013 | [2] -0.237 | saracatinib 0.044 | sotrastaurin -0.042

RBX1 (UniProt P62877)
inactive: vemurafenib -0.112 | [1] 0.493 | barasertib -0.054 | [5] -0.025 | volasertib 0.059 | [2] -0.054 | saracatinib -0.282 | sotrastaurin -0.024

RC3H2 (UniProt Q9HBD1)
inactive: vemurafenib 0.236 | [1] -0.127 | [5] 0.344 | volasertib 0.123 | [2] 0.081 | [3] -0.123 | [4] 0.008 | saracatinib 0.06 | sotrastaurin 0.112

RASA2 (UniProt Q15283)
inactive: vemurafenib 0.069 | [1] 0.025 | barasertib -0.02 | [5] -0.055 | volasertib -0.018 | [2] 0.02 | [3] -0.028 | [4] -0.013 | saracatinib 0.068 | sotrastaurin -0.017

RBM38 (UniProt Q9H0Z9)
inactive: vemurafenib 0.024 | [1] -0.015 | [5] 0.104 | volasertib 0.012 | [2] 0.095 | [3] 0.023 | [4] 0 | saracatinib 0.122 | sotrastaurin -0.058

RBBP5 isoform 2 (UniProt Q15291)
inactive: vemurafenib -0.316 | [1] 0.181 | barasertib -0.019 | [5] 0.045 | volasertib -0.065 | [2] 0.133 | saracatinib 0.022 | sotrastaurin 0.029

RASA1 (UniProt P20936)
inactive: vemurafenib -0.002 | [1] 0.026 | barasertib 0.059 | [5] 0.054 | volasertib -0.016 | [2] 0.004 | [3] -0.037 | [4] 0.017 | saracatinib -0.008 | sotrastaurin -0.025

RELCH (UniProt Q9P260)
inactive: vemurafenib 0.04 | [1] 0.053 | volasertib 0.199 | saracatinib -0.022 | sotrastaurin 0.021

REST (UniProt Q13127)
inactive: vemurafenib 0.135 | [1] -0.013 | volasertib 0.006 | [2] 0.009 | saracatinib -0.052 | sotrastaurin -0.044

RECQL5 (UniProt O94762)
inactive: vemurafenib -0.028 | [1] -0.045 | barasertib 0.02 | [5] 0.069 | volasertib -0.187 | [2] -0.01 | [3] 0.131 | [4] -0.222 | saracatinib 0.018 | sotrastaurin 0.003

RBM28 (UniProt Q9NW13)
inactive: vemurafenib 0.007 | [1] 0.025 | barasertib 0.014 | [5] -0.033 | volasertib -0.021 | [2] 0.009 | [3] 0.014 | [4] -0.044 | saracatinib 0.001 | sotrastaurin -0.005

RDH10 (UniProt Q8IZV5)
inactive: vemurafenib 0.054 | [1] 0.032 | barasertib 0.027 | [5] -0.011 | volasertib 0.035 | [2] -0.072 | [3] -0.067 | [4] 0.062 | saracatinib -0.035 | sotrastaurin -0.006

RETREG2 (UniProt Q8NC44)
inactive: vemurafenib 0.037 | [1] -0.036 | barasertib 0.033 | [5] -0.009 | volasertib 0.09 | [2] -0.086 | [3] -0.261 | [4] 0.014 | sotrastaurin 0.112

RBM12 (UniProt Q9NTZ6)
inactive: vemurafenib 0.006 | [1] 0.023 | barasertib -0.009 | [5] 0.007 | volasertib -0.017 | [2] 0.01 | [3] -0.037 | [4] 0.042 | saracatinib -0.003 | sotrastaurin -0.017

RBM15 (UniProt Q96T37)
inactive: vemurafenib 0.064 | [1] 0.077 | barasertib 0.155 | [5] 0.131 | volasertib 0.001 | [2] -0.156 | [3] -0.063 | [4] 0.074 | saracatinib 0.024 | sotrastaurin -0.029

REXO5 (UniProt Q96IC2)
inactive: vemurafenib -0.027 | barasertib 0 | [5] 0.003 | [2] -0.082 | [3] -0.049 | [4] 0.085 | saracatinib 0.026

RBM22 (UniProt Q9NW64)
inactive: vemurafenib -0.014 | [1] -0.007 | barasertib 0.022 | [5] 0.078 | volasertib -0.004 | [2] -0.004 | [3] 0.058 | [4] 0.025 | saracatinib 0.01 | sotrastaurin -0.08

REX1BD (UniProt Q96EN9)
inactive: [5] 0.1 | [2] 0.012 | [3] 0.07 | [4] 0.177 | saracatinib 0.113 | sotrastaurin -0.082
